System: mSWI/SNF complexes
Assay: mSWI/SNF complex purification with HA-tagged baits and mass spectrometry (peptide counts)
Parameters: species or system human
[1] = 293_HA-BRD7: HA-BRD7 bait purification, total peptide count per co-purified protein
[2] = 293_HA-BRD7: HA-BRD7 bait purification, unique peptide count per co-purified protein
[3] = total peptide count of the co-purified protein, 293_HA-BRD9 (HA-BRD9 bait, mass spectrometry), Table 3b
[4] = unique peptide count of the co-purified protein, 293_HA-BRD9 (HA-BRD9 bait, mass spectrometry), Table 3b

B1: HNRNPH1 (protein, UniProt P31943 1-449, looked up)
Heterogeneous nuclear …: MMLGTEGGEGFVVKVRGLPWSCSADEVQRFFSDCKIQNGAQGIRFIYTREGRPSGEAFVELESEDEVKLALKKDRETMGHRYVEVFKSNNVEMDWVLKHTGPNSPDTANDGFVRLRGLPFGCSKEEIVQFFSGLEIVPNGITLPVDFQGRSTGEAFVQFASQEIAEKALKKHKERIGHRYIEIFKSSRAEVRTHYDPPRKLMAMQRPGPYDRPGAGRGYNSIGRGAGFERMRRGAYGGGYGGYDDYNGYNDGYGFGSDRFGRDLNYCFSGMSDHRYGDGGSTFQSTTGHCVHMRGLPYRATENDIYNFFSPLNPVRVHIEIGPDGRVTGEADVEFATHEDAVAAMSKDKANMQHRYVELFLNSTAGASGGAYEHRYVELFLNSTAGASGGAYGSQMMGGMGLSNQSSYGGPASQQLSGGYGGGYGGQSSMSGYDQVLQENSSDFQSNIA
B1 was tested, and the Total [1] was 10, the Unique [2] was 10 and the Total (293_HA-DPF2 purification, total peptides) was 2. For the same molecule, the Unique (293_HA-DPF2 purification, unique peptides) was 2.

B2: POP1 (protein, UniProt Q99575 1-1024, looked up)
Ribonucleases P/MRP protein …: MSNAKERKHAKKMRNQPTNVTLSSGFVADRGVKHHSGGEKPFQAQKQEPHPGTSRQRQTRVNPHSLPDPEVNEQSSSKGMFRKKGGWKAGPEGTSQEIPKYITASTFAQARAAEISAMLKAVTQKSSNSLVFQTLPRHMRRRAMSHNVKRLPRRLQEIAQKEAEKAVHQKKEHSKNKCHKARRCHMNRTLEFNRRQKKNIWLETHIWHAKRFHMVKKWGYCLGERPTVKSHRACYRAMTNRCLLQDLSYYCCLELKGKEEEILKALSGMCNIDTGLTFAAVHCLSGKRQGSLVLYRVNKYPREMLGPVTFIWKSQRTPGDPSESRQLWIWLHPTLKQDILEEIKAACQCVEPIKSAVCIADPLPTPSQEKSQTELPDEKIGKKRKRKDDGENAKPIKKIIGDGTRDPCLPYSWISPTTGIIISDLTMEMNRFRLIGPLSHSILTEAIKAASVHTVGEDTEETPHRWWIETCKKPDSVSLHCRQEAIFELLGGITSPAEIPAGTILGLTVGDPRINLPQKKSKALPNPEKCQDNEKVRQLLLEGVPVECTHSFIWNQDICKSVTENKISDQDLNRMRSELLVPGSQLILGPHESKIPILLIQQPGKVTGEDRLGWGSGWDVLLPKGWGMAFWIPFIYRGVRVGGLKESAVHSQYKRSPNVPGDFPDCPAGMLFAEEQAKNLLEKYKRRPPAKRPNYVKLGTLAPFCCPWEQLTQDWESRVQAYEEPSVASSPNGKESDLRRSEVPCAPMPKKTHQPSDEVGTSIEHPREAEEVMDAGCQESAGPERITDQEASENHVAATGSHLCVLRSRKLLKQLSAWCGPSSEDSRGGRRAPGRGQQGLTREACLSILGHFPRALVWVSLSLLSKGSPEPHTMICVPAKEDFLQLHEDWHYCGPQESKHSDPFRSKILKQKEKKKREKRQKPGRASSDGPAGEEPVAGQEALTLGLWSGPLPRVTLHCSRTLLGFVTQGDFSMAVGCGEALGFVSLTGLLDMLSSQPAAQRGLVLLRPPASLQYRFARIAIEV
With B2 the Total [1] was 10 and the Unique [2] was 10.

B3: PHGDH (protein, UniProt O43175 2-533, looked up)
D-3-phosphoglycerate …: AFANLRKVLISDSLDPCCRKILQDGGLQVVEKQNLSKEELIAELQDCEGLIVRSATKVTADVINAAEKLQVVGRAGTGVDNVDLEAATRKGILVMNTPNGNSLSAAELTCGMIMCLARQIPQATASMKDGKWERKKFMGTELNGKTLGILGLGRIGREVATRMQSFGMKTIGYDPIISPEVSASFGVQQLPLEEIWPLCDFITVHTPLLPSTTGLLNDNTFAQCKKGVRVVNCARGGIVDEGALLRALQSGQCAGAALDVFTEEPPRDRALVDHENVISCPHLGASTKEAQSRCGEEIAVQFVDMVKGKSLTGVVNAQALTSAFSPHTKPWIGLAEALGTLMRAWAGSPKGTIQVITQGTSLKNAGNCLSPAVIVGLLKEASKQADVNLVNAKLLVKEAGLNVTTSHSPAAPGEQGFGECLLAVALAGAPYQAVGLVQGTTPVLQGLNGAVFRPEVPLRRDLPLLLFRTQTSDPAMLPTMIGLLAEAGVRLLSYQTSLVSDGETWHVMGISSLLPSLEAWKQHVTEAFQFHF
Work on B3 yielded a Total [1] of 7, a Unique [2] of 7 and a Total [3] of 1. It also gave a Unique [4] of 1.

B4: SUCLG2 (protein, UniProt Q96I99 38-432, looked up)
Succinate--CoA ligase …: LNLQEYQSKKLMSDNGVRVQRFFVADTANEALEAAKRLNAKEIVLKAQILAGGRGKGVFNSGLKGGVHLTKDPNVVGQLAKQMIGYNLATKQTPKEGVKVNKVMVAEALDISRETYLAILMDRSCNGPVLVGSPQGGVDIEEVAASNPELIFKEQIDIFEGIKDSQAQRMAENLGFVGPLKSQAADQITKLYNLFLKIDATQVEVNPFGETPEGQVVCFDAKINFDDNAEFRQKDIFAMDDKSENEPIENEAAKYDLKYIGLDGNIACFVNGAGLAMATCDIIFLNGGKPANFLDLGGGVKEAQVYQAFKLLTADPKVEAILVNIFGGIVNCAIIANGITKACRELELKVPLVVRLEGTNVQEAQKILNNSGLPITSAIDLEDAAKKAVASVAKK
Molecule B4 has a Total [1] of 10 and a Unique [2] of 10.

B5: NOM1 (protein, UniProt Q5C9Z4 1-860, looked up)
Nucleolar MIF4G …: MAASRSAGEAGPGGSQGRVVRMKRRGGRGPRRGPAGGGEKALKRLKLAVEEFVHATSEGEAPGGCEGRGAPVSFRPGGRKSRKELRKEKRHLRKARRLQRTAGPEQGPGLGGRSGAEEASGHRQDTEERARPAPSRDPSPPRKPRPSRVKAKATAATAKTRPSAAATAAARKRALLAANEEEDREIRKLERCLGLNKRKKKDGSSSVPLSFARDGLDYILGALESGKNSGLYDSSGEEEEDAGQTLPESDLESDSQDESEEEEEGDVEKEKKAQEAEAQSEDDDEDTEEEQGEEKEKGAQEKRRGKRVRFAEDEEKSENSSEDGDITDKSLCGSGEKYIPPHVRQAEETVDFKKKEELERLKKHVKGLLNRLSEPNMASISGQLEELYMAHSRKDMNDTLTSALMGACVTASAMPSRLMMEHVLLVSILHHTVGIEVGAHFLEAVVRKFDAIYKYGSEGKECDNLFTVIAHLYNFHVVQSLLIFDILKKLIGTFTEKDIELILLMLKNVGFSLRKDDALSLKELITEAQTKASGAGSEFQDQTRIRFMLETMLALKNNDMRKIPGYDPEPVEKLRKLQRALVRNAGSGSETQLRVSWDSVLSAEQTGRWWIVGSAWSGAPMIDNSHHTHLQKQLVGTVSSKILELARKQRMNTDIRRNIFCTIMTSEDFLDAFEKLLKLGLKDQQEREIIHVLMDCCLQEKTYNPFYAFLASKFCEYERRFQMTFQFSIWDKFRDLENLPATNFSNLVHLVAHLLKTKSLSLSILKVVEFSELDKPRVRFLRKVLSILLMETEVEDLSLIFTRVSDNPKLGVLREGLKLFISHFLLKNAQAHRSADEANVLREKADLATKCLQGKASLRM
Work on B5 yielded a Total [1] of 4, a Unique [2] of 4 and a Total [3] of 1. For the same molecule, the Unique [4] was 1.

B6: MCM4 (protein, UniProt P33991 2-863, looked up)
DNA replication licensing …: SSPASTPSRRGSRRGRATPAQTPRSEDARSSPSQRRRGEDSTSTGELQPMPTSPGVDLQSPAAQDVLFSSPPQMHSSAIPLDFDVSSPLTYGTPSSRVEGTPRSGVRGTPVRQRPDLGSAQKGLQVDLQSDGAAAEDIVASEQSLGQKLVIWGTDVNVAACKENFQRFLQRFIDPLAKEEENVGIDITEPLYMQRLGEINVIGEPFLNVNCEHIKSFDKNLYRQLISYPQEVIPTFDMAVNEIFFDRYPDSILEHQIQVRPFNALKTKNMRNLNPEDIDQLITISGMVIRTSQLIPEMQEAFFQCQVCAHTTRVEMDRGRIAEPSVCGRCHTTHSMALIHNRSLFSDKQMIKLQESPEDMPAGQTPHTVILFAHNDLVDKVQPGDRVNVTGIYRAVPIRVNPRVSNVKSVYKTHIDVIHYRKTDAKRLHGLDEEAEQKLFSEKRVELLKELSRKPDIYERLASALAPSIYEHEDIKKGILLQLFGGTRKDFSHTGRGKFRAEINILLCGDPGTSKSQLLQYVYNLVPRGQYTSGKGSSAVGLTAYVMKDPETRQLVLQTGALVLSDNGICCIDEFDKMNESTRSVLHEVMEQQTLSIAKAGIICQLNARTSVLAAANPIESQWNPKKTTIENIQLPHTLLSRFDLIFLLLDPQDEAYDRRLAHHLVALYYQSEEQAEEELLDMAVLKDYIAYAHSTIMPRLSEEASQALIEAYVDMRKIGSSRGMVSAYPRQLESLIRLAEAHAKVRLSNKVEAIDVEEAKRLHREALKQSATDPRTGIVDISILTTGMSATSRKRKEELAEALKKLILSKGKTPALKYQQLFEDIRGQSDIAITKDMFEEALRALADDDFLTVTGKTVRLL
With B6 the Total [1] was 7, the Unique [2] was 6 and the Total [3] was 1. For the same molecule, the Unique [4] was 1.

B7: RRP1B (protein, UniProt Q14684 1-758, looked up)
Ribosomal RNA processing …: MAPAMQPAEIQFAQRLASSEKGIRDRAVKKLRQYISVKTQRETGGFSQEELLKIWKGLFYCMWVQDEPLLQEELANTIAQLVHAVNNSAAQHLFIQTFWQTMNREWKGIDRLRLDKYYMLIRLVLRQSFEVLKRNGWEESRIKVFLDVLMKEVLCPESQSPNGVRFHFIDIYLDELSKVGGKELLADQNLKFIDPFCKIAAKTKDHTLVQTIARGVFEAIVDQSPFVPEETMEEQKTKVGDGDLSAEEIPENEVSLRRAVSKKKTALGKNHSRKDGLSDERGRDDCGTFEDTGPLLQFDYKAVADRLLEMTSRKNTPHFNRKRLSKLIKKFQDLSEGSSISQLSFAEDISADEDDQILSQGKHKKKGNKLLEKTNLEKEKGSRVFCVEEEDSESSLQKRRRKKKKKHHLQPENPGPGGAAPSLEQNRGREPEASGLKALKARVAEPGAEATSSTGEESGSEHPPAVPMHNKRKRPRKKSPRAHREMLESAVLPPEDMSQSGPSGSHPQGPRGSPTGGAQLLKRKRKLGVVPVNGSGLSTPAWPPLQQEGPPTGPAEGANSHTTLPQRRRLQKKKAGPGSLELCGLPSQKTASLKKRKKMRVMSNLVEHNGVLESEAGQPQALGSSGTCSSLKKQKLRAESDFVKFDTPFLPKPLFFRRAKSSTATHPPGPAVQLNKTPSSSKKVTFGLNRNMTAEFKKTDKSILVSPTGPSRVAFDPEQKPLHGVLKTPTSSPASSPLVAKKPLTTTPRRRPRAMDFF
In the case of B7, the Total [1] is reported as 10 and the Unique [2] is reported as 10.

From US12729225B2, “Non-canonical SWI/SNF complex and uses thereof” (Dana-Farber Cancer Institute, Inc., priority 2018, dated 2026)
